# According to patent publication US20110207784A1, “OXADIAZOLE-2-OXIDES AS ANTISCHISTOSOMAL AGENTS” (THE UNITED STATES OF AMERICA, AS REPRESENTED BY THE …, priority 2008, published 2011):
# By UniProt entry, the sequences of proteins in these tests, tags left out. Residues count along the entry.
# UniProt Q962Y6, 1-598: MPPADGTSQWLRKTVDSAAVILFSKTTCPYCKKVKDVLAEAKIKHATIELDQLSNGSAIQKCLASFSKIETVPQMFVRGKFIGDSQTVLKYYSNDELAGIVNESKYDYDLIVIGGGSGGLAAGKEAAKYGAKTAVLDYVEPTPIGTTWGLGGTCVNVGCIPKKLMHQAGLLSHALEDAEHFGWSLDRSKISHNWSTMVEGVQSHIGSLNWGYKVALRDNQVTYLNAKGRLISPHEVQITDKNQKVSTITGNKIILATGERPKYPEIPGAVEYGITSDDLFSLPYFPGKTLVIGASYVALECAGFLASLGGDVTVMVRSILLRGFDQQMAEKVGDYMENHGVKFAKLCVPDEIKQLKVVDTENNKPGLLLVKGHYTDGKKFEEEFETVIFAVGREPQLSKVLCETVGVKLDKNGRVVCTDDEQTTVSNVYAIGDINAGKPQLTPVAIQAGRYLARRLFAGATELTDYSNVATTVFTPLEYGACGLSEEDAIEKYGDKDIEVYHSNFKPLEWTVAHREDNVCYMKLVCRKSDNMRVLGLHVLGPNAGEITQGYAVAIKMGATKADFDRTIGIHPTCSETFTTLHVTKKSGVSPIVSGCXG
# Target: Recombinant thioredoxin glutathione reductase (TGR) (Schistosoma mansoni, UniProt Q962Y6)
# Format: biochemical, S. mansoni
structure (smiles),measurement,value
"N#Cc1c(-c2csc(-c3no[n+]([O-])c3C#N)c2)no[n+]1[O-] [Compound 54, 4,4′-(thiophen-2,4-diyl)bis(3-cyano-1,2,5-oxadiazole 2-oxide)]",IC50,0.35 µM
